In patent US20240252671A1 (priority 2021, published 2024):

Test: peptide synthesis
Conditions: late stage modification step, TFA salt

With “(2S)-2-[2-(2-aminoacetamido)acetamido]-N-([[(2-[2-chloro-4-[([[2-(2,6-dioxopiperidin-3-yl)-1-oxo-3H-isoindol-5-yl]methyl]carbamoyl)amino]phenyl]ethoxy)methyl]-carbamoyl]methyl)-3-phenylpropanamide; trifluoroacetic acid” the step yield was 79%.
